Experimental data taken from publication PMC12406199, “NanoDSF Screening for Anti-tubulin Agents Uncovers New Structure–Activity Insights” (Journal of Medicinal Chemistry, 2025).

Test system: U87MG
Assay: cells
Parameters: MTT viability assay on U87MG glioblastoma cells
Settings: Homo sapiens, U-87 MG, 72 h
Procedure: Glioblastoma cell culture routines, viability, and proliferation assays were performed as previously described. U87MG cells were maintained in complete MEM media supplemented with 10% FBS and 2 mM L-glutamine (Invitrogen, Paris, France). For cytotoxicity assays, cells were counted and plated in 96-well flat-bottom plates (50,000 cells/mL, 5000 cells per well). After 24 h, the cells were treated with increasing concentrations of the MTAs (0, 1, 5, 10, and 20–40 μM) in a vehicle solution, containing 0.05% DMSO. All concentrations were done in triplicates. The surviving cells were quantified after 72 h by the tetrazolium bromide MTT-assay, according to the manufacturer’s instructions. After cell lysis, the optical density was measured at 600 nm using a Multiskan MS Thermo plate reader (LabSystems, Waltham, MA, USA).

IC50: 22.5 ± 4 µM
Structure (SMILES): CN1C[C@@H]2c3ccccc3Oc3ccc(Cl)cc3[C@H]2C1 (racemic) [ANP, Asenapine]
